From patent EP1495132B1, “SYSTEMIC MARKER FOR MONITORING ANTI-INFLAMMATORY AND ANTIOXIDANT ACTIONS OF THERAPEUTIC AGENTS” (priority 2002, dated 2003)

Test system: lipid levels and high-sensitivity CRP
[1] = 12 Weeks of atorvastatin 10 mg orally per day, n = 35, mean ± SD

SMILES: CC(C)c1c(C(=O)Nc2ccccc2)c(-c2ccccc2)c(-c2ccc(F)cc2)n1CC[C@@H](O)C[C@@H](O)CC(=O)O [Atorvastatin, atorvastatin]
- High-density lipoprotein cholesterol [1]: 58 ± 12 mg/dL
- Low-density lipoprotein cholesterol [1]: 103 ± 29 mg/dL
- High-density lipoprotein cholesterol, absolute change (baseline to 12 weeks, atorvastatin 10 mg per day, n = 35): 2 mg/dL
- High-density lipoprotein cholesterol, % change (increase, baseline to 12 weeks, atorvastatin 10 mg per day, not significant): 4%
- Low-density lipoprotein cholesterol, % change (reduction, baseline to 12 weeks, atorvastatin 10 mg per day, given unsigned): 39%
